Assay results: PubChem BioAssay AID2417 (National Center for Advancing Translational Sciences (NCATS), 2010)
The campaign covered roughly 140,000 compounds. About 4,300 (3.1%) were called active. Inconclusive results, whose numbers are uncertain, are shown with a selection of clear calls.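 How the source made its calls: active means readout at or below -70, meaning at least 70% loss of cells showing the perinucleolar compartment, a nuclear body marking cancer cells; inconclusive means readout between -30 and a set limit; inactive means the rest.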

experiment: High Content Assay for Compounds that inhibit the Assembly of the Perinucleolar Compartment; details: PC3M PTB-GFP, PNC prevalence imaging, 16 h; at 10 µM; hits give low values;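 further: plate controls were DMSO wells for no effect and camptothecin positive control wells for full effect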
Summary of the method: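 PC3M cells stably expressing PTB-GFP, 750–1000 cells/well, treated 16 h at 37 °C with compound (23 nl of library stock), in duplicate. After paraformaldehyde fixation and Hoechst stain, imaged at 20x; PNC prevalence scored by image analysis.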

| Structure (SMILES) | activity change (PNC), negative = inhibition |
| --- | --- |
| CCn1c(SCC(=O)NC(C)(C)C)nnc1-c1ccccn1 | inactive: 9.9% |
| Cc1ccccc1OCc1nnc(SCC(=O)Nc2ccc3c(c2)oc2ccccc23)n1C | inconclusive: -43.6% |
| COCCCNC(=O)Cn1cc(C(C)=O)c2ccccc21 | inconclusive: -78.5% |
| COc1ccc(CNC(=O)C(=O)NCC2OCCN2S(=O)(=O)c2cccs2)cc1 (stereo unspecified) | inconclusive: -57.3% |
| c1ccc(-c2cc3c(nn2)CCc2nonc2-3)cc1 | active: -102% |
| CC(Oc1ccc(Cl)cc1)C(=O)NNC(=S)NC(=O)c1ccco1 (stereo unspecified) | inconclusive: -33.2% |
| COc1cc(NC(=O)COC(=O)c2cc(S(=O)(=O)N3CCCCC3)ccc2Cl)c(C)cc1[N+](=O)[O-] | inconclusive: -66.5% |
| CCOC(=O)/C(N=Nc1sc(C(=O)OC)c(C)c1C(=O)OCC)=C(\O)CCl | inactive: -26.2% |
| Cc1c(C(=O)N2CCc3ccccc32)cnn1C | inconclusive: -35.2% |
| O=C(CSCc1ccc(F)cc1)NC1CCCC1 | inactive: -1.16% |
| Cc1cnc(NC(=O)CSc2nnc(-c3ccncc3)n2C2CCCCC2)s1 | inconclusive: -45.7% |
| O=C(Nc1cnn(C23CC4CC(CC(C4)C2)C3)c1)c1cnn2cccnc12 | inconclusive: -38.4% |
| CC1=CS(=O)(=O)CC1Sc1nc2ccccc2[nH]1 (stereo unspecified) | inconclusive: -48.3% |
| CC(C)C(=O)NC(=S)Nc1ccccn1 | inactive: -11.8% |
| O=C(O)/C=C/C(=O)Nc1ccccc1SC(F)(F)F | inconclusive: -51.1% |
| Cn1cccc1/C=C(/C#N)C(N)=S | inactive: -14.3% |
| CCC(Sc1nnnn1-c1ccccc1)C(=O)Nc1nc2ccccc2s1 (stereo unspecified) | active: -100% |
| CCCC(=O)C1=C(O)C(C(=O)OC)C(C)(C)CC1=Nc1cccc2ccccc12 (stereo unspecified) | inconclusive: -47.1% |
| COc1ccccc1CNC(=O)Cc1ccc(Br)cc1 | inactive: -20.8% |
| CN1c2ccccc2-c2nc3ccccc3n2C1c1ccncc1 (stereo unspecified) | inconclusive: -43.7% |
| Cc1ccsc1/C=N/n1c(COc2ccccc2)n[nH]c1=S | inactive: -16.6% |
| CC1=C(C(=O)Nc2ccc(C)cc2C)C(c2ccc([N+](=O)[O-])cc2)n2ncnc2N1 (stereo unspecified) | inconclusive: -45.3% |
| Cc1c(C(=O)N2CCN(Cc3ccc4c(c3)OCO4)CC2)cccc1[N+](=O)[O-] | inactive: 162% |

Copied from the list.
CC(C)C(=O)NC(=S)Nc1ccccn1 – activity change (PNC), negative = inhibition: inactive: -11.8%
Cc1ccsc1/C=N/n1c(COc2ccccc2)n[nH]c1=S – activity change (PNC), negative = inhibition: inactive: -16.6%
CCn1c(SCC(=O)NC(C)(C)C)nnc1-c1ccccn1 – activity change (PNC), negative = inhibition: inactive: 9.9%

The list goes on.

| Structure (SMILES) | activity change (PNC), negative = inhibition |
| --- | --- |
| CC(=O)Nc1nonc1-c1nc2ccccc2n1CC1CC1 | active: -94% |
| C=CCN(C(=O)Nc1ccc(Cl)cc1)C1CC(=O)N(c2ccc(OC)cc2)C1=O (stereo unspecified) | inconclusive: -35.4% |
| CCN1CCCC1CN=Cc1c(O)n(-c2ccccc2)c(=O)c2ccccc12 (stereo unspecified) | active: -91.9% |
| CC1=C(C(=O)N2CCOCC2)C(c2cccc(C)c2)NC(=S)N1 (stereo unspecified) | inconclusive: -41.8% |
| COC(=O)c1ccc(CSc2nc3ccccc3c(=O)n2CC(C)C)o1 | inconclusive: -36.1% |
| O=C(N1CCOCC1)n1cnc2ccccc21 | active: -100% |
| CN1CCN(c2nc(-c3cc4ccccc4o3)cs2)CC1 | inconclusive: -59.1% |
| CN(c1ccc(C(=O)NCC2CCCO2)cc1)S(C)(=O)=O (stereo unspecified) | active: -87.1% |
| CCn1c(=O)c(C(=O)Nc2ccccc2C)c(O)c2ccccc21 | active: -100% |
| CSc1nc2ncc3c(n2n1)CC1c2ccccc2CCN1C3=O (stereo unspecified) | inconclusive: -41.8% |
| CC(=O)Nc1ccc(C2=NN(Cc3nnc(-c4ccccc4)o3)C(=O)SC2)cc1 | inactive: -15.1% |
| CCCC1C(C(=O)OCC)=C(C)NC(C)=C1C(=O)OCC | inconclusive: -33.1% |
| Cc1cccc(-c2nsc(SCC(=O)c3ccc(Cl)cc3)n2)c1 | inconclusive: -35.3% |
| C=CCN1C(=O)/C(=C2\SC(N3CCOCC3)=NC2=O)c2cc(Br)ccc21 | inactive: -27.8% |
| O=C(NCCC1=CCCCC1)C1CC(=O)N(C2CCCCCC2)C1 (stereo unspecified) | inconclusive: -71% |
| COc1ccccc1NC(=S)N1CCN(Cc2ccc3c(c2)OCO3)CC1 | inactive: 29.6% |
| COc1ccc(S(=O)(=O)NC2(C(F)(F)F)N=C3SCCN3C2=O)cc1 (stereo unspecified) | inconclusive: -47.9% |
| CCOC(=O)N1CCN(S(=O)(=O)c2ccc3c(c2)CCN3C(=O)C2CCC2)CC1 | inconclusive: -41.4% |
| Cc1c(C(N)=O)sc2ncn(CC(=O)N3CCC(C)CC3)c(=O)c12 | inconclusive: -47% |
| CN(C)S(=O)(=O)N1CCN(C(=O)c2ccccc2Cl)CC1 | inconclusive: -61% |
| CCOC(=O)c1sc2nc(C(C)C)c3c(c2c1N)CCC3 | inactive: 36.7% |
| O=C(Nc1ccn(Cc2ccccc2F)n1)c1ccc(COc2cc(Cl)ccc2Cl)o1 | inconclusive: -56.6% |
| COC(CNC(=O)c1ccc2nc(-c3cccs3)c(-c3cccs3)nc2c1)OC | inconclusive: -61.1% |

| Structure (SMILES) | activity change (PNC), negative = inhibition |
| --- | --- |
| Cc1cccc2cc(-c3ccccc3)c(-c3ccccc3)c[n+]12 | inconclusive: -61% |
| N#Cc1c(NC(=S)NC(=O)c2ccccc2)sc2c1CCN(CCc1ccccc1)C2 | inconclusive: -65.3% |
| COc1ccc(-n2c(COc3ccc(C)cc3)nnc2SCc2ccc(C#N)cc2)cc1 | inconclusive: -69.4% |
| Brc1ccc(-c2cn3cccnc3n2)cc1 | inconclusive: -55.6% |
| CCOc1ccc(NCc2ccccc2OCc2cccc(F)c2)cc1 | inactive: -28% |
| CN(CCCNC(=O)c1cn(C)c2ccc(S(=O)(=O)N(C)C)cc2c1=O)c1ccccc1 | inconclusive: -37.5% |
| COc1ccc(NC(=O)C2(c3ccc(NC(=O)c4ccc(OC)cc4)cc3)CCCC2)cc1 | inactive: 18% |
| CCOc1ccc(-n2c(Cc3cc(=O)[nH]c(=O)[nH]3)nnc2SCC(=O)NC2CCCC2)cc1 | inactive: -21.7% |
| Cc1ccc(C(=O)N2CCCC(c3nc4c(nnn4Cc4ccccc4)c(=O)[nH]3)C2)cc1 (stereo unspecified) | inconclusive: -60.6% |
| COc1ccc(-c2nnc3sc(COc4ccccc4)nn23)cc1 | inactive: 34.9% |
| O=C(CSc1cn(CCNC(=O)c2cccs2)c2ccccc12)NC1CCCC1 | inactive: -16% |
| COc1ccc(Cc2nnc3c4cnn(C)c4ncn23)cc1 | active: -85.9% |
| COc1cccc(NS(=O)(=O)c2ccc(OC)c(OC)c2)c1 | inconclusive: -42.6% |
| O=C(Nc1ccc(N2CCN(C(=O)c3ccc(Cl)cc3)CC2)cc1)c1cc2ccccc2o1 | inactive: 35% |
| N#CCc1nc(CSc2nc3ccccc3s2)cs1 | inactive: 12.2% |
| Cc1cc(N/N=C/c2cccc(Cl)c2)nc(NCc2ccccc2)n1 | inactive: 17.3% |
| Cc1ccc(Nc2c(-c3ccc(N4CCOCC4)cc3)nc3ncccn23)cc1C | active: -102% |
| CC(=O)Nc1ccc(S(=O)(=O)NC2(C(F)(F)F)N=C(c3ccccc3)NC2=O)cc1 (stereo unspecified) | inactive: 3.58% |
| Cn1c(=O)c2c(nc(SCc3cccnc3)n2Cc2ccccc2)n(C)c1=O | inactive: -14.4% |
| COC(=O)c1sccc1NC(=O)CSc1nnnn1-c1ccccc1F | inconclusive: -64.9% |
| Cc1ccc(SCc2cc(=O)n3[nH]c(C)nc3n2)cc1 | inconclusive: -40.6% |
| Cc1ccc(Cn2c(CN3CCOCC3)nc3c2c(=O)[nH]c(=O)n3C)cc1 | inconclusive: -39.8% |
| COc1ccc(N2C(=O)[C@@H]3[C@H](C2=O)[C@H]2c4ccccc4C=CN2[C@@H]3C(C)=O)cc1 | inactive: 33.9% |

| Structure (SMILES) | activity change (PNC), negative = inhibition |
| --- | --- |
| COCc1cc(C)nc2sc3c(=O)n(-c4cccc5ccccc45)nnc3c12 | inactive: 0.942% |
| CCOC(=O)CSc1nnc(Cn2nnc(-c3ccccc3)n2)n1CC | inactive: -22.1% |
| Cc1cccc(CCNC(=O)C2CCC(CNc3c(N4CCCC4)c(=O)c3=O)CC2)c1 (stereo unspecified) | inconclusive: -34.5% |
| COc1ccc(C(=O)CC(Nc2ccc([N+](=O)[O-])cc2)c2ccc(Cl)cc2)cc1 (stereo unspecified) | inconclusive: -42.8% |
| COC(=O)c1c(NC(=S)Nc2ccccc2Cl)sc(C)c1C | inactive: 32.6% |
| COc1cccc(-n2nnnc2SCC(=O)Nc2ccc3c(c2)OCCO3)c1 | inactive: -19.1% |
| CCn1nnc(-c2ccccc2NC(=O)c2cc(OC)cc(OC)c2)n1 | inconclusive: -69.7% |
| N#C/C(=C\c1ccc(-c2ccc([N+](=O)[O-])cc2Br)o1)C(=O)N1CCN(c2ccccc2)CC1 | inconclusive: -30.9% |
| Cc1cccc2c(Cl)cc(=O)[nH]c12 | inconclusive: -53.2% |
| c1ccc(-c2nnnc3ccccc23)cc1 | inconclusive: -38.6% |
| Cc1ccc(NC(=O)/C(=C/c2cccc(Br)c2)NC(=O)c2ccco2)cc1 | inactive: -19.5% |
| COc1ccc(C(=O)NCC(=O)N=Nc2c(O)n(Cc3ccccc3)c3ccccc23)cc1OC | inactive: -16.8% |
| Cc1cnc(NC(=O)COc2ccccc2Cl)s1 | inconclusive: -50% |
| Cc1ccc(C)c(NC(=O)c2cc3ccccn3n2)c1 | inactive: 0% |
| O=C(Cc1ccccc1)NC(NNc1ccccc1)(C(F)(F)F)C(F)(F)F | inactive: -19.3% |
| O=C(NC1CCCCC1)C1CCN(S(=O)(=O)c2cccc3cccnc23)CC1 | inconclusive: -56.9% |
| C=CCn1c(C)cc(C(=O)COC(=O)CNC(=O)c2ccccc2)c1C | inconclusive: -33.2% |
| CCCCOc1ccc(C(O)(CCC)CCN2CCOCC2)cc1 (stereo unspecified) | inactive: 4.07% |
| COc1cc(Cl)ccc1NC(=S)N(CCCN1CCOCC1)Cc1cn(C)c2ccccc12 | inconclusive: -32% |
| O=C(N/N=C/c1ccc[nH]1)c1sc2ccccc2c1Cl | inconclusive: -71.5% |
| Cc1cc(C(=O)NCc2ccccc2F)cs1 | inconclusive: -58% |
| CCOC(=O)CC1=C(C(=O)OCC)C(c2ccc(OC)c(OC)c2)C(C#N)=C(N)O1 (stereo unspecified) | inconclusive: -43.9% |
